The values below come from patent US9682928B2 (NeuroPro Therapeutics, Inc., priority 2009, dated 2017).

The conditions of series [1]: oral; cited from earlier work.

Structures are written as SMILES.

In the case of `NS(=O)(=O)c1cc(C(=O)O)c(NCc2ccco2)cc1Cl` [Furosemide], the “Absorption in the intestine” value in series [1] is 40%. The “Low-[Cl−]o-induced slow oscillations in CA1” value with rat hippocampal slices (2.5 mM furosemide, [K+]o 12 mM, [Cl−]o 16 mM) is on record as “completely blocked”. In addition, in the series with rat hippocampal slices (furosemide-containing (2.5 mM) or low-chloride medium, high-[K+]o, bicuculline or 4-AP), the “Exposure time to cessation of spontaneous bursting (CA1 before CA3)” value was in the range of 30 to 40 min.
